The record followed here is patent publication EP4592312A1.

For the assay, the target named is T1, Asporin (ASPN) protein (human) (UniProt Q9BXN1).
T1 sequence (looked up): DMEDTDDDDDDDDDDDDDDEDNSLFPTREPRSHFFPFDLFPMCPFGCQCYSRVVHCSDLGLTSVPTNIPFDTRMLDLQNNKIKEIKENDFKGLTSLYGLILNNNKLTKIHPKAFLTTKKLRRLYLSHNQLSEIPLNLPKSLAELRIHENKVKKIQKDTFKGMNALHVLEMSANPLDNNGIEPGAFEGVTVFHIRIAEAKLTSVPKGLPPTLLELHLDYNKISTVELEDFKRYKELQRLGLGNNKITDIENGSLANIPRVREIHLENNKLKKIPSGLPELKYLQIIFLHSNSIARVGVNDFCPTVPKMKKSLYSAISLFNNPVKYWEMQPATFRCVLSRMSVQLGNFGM
Briefly: dot blot, and peptide blocking with western blot of MRC5 lysate. (A western blot detects proteins with antibodies after separation by electrophoresis.)

Results are given in words; binding and its absence hold for the method and conditions named. Some binding calls cover weakened binding; strength is not graded here.

B1: anti-Asporin monoclonal antibody #10 (antibody, V domains shown)
VH: EVKLVETGGGLVQPGRPMKLSCVASGFTFSDYWMNWVRQSPEKGLEWVVQIRNKPYNYETYYSDSVKGRFTISRDDSKSCVYLQMNNLRAEDMGIYYCTAYYRYDVLFDYWGQGTSLTVSS
VL: DIQMTQTTSSLSASLGDRVTISCRASQDISNYLNWYQQKPEGTVKLLIYYTSRLHSGVPSRFSGSGSGTDYSLTISNLEQEDIATYFCQQSKTLPLTFGAGTKLELK
With B1, the binding result is “binds”.
